PubChem BioAssay AID720505 | Drosophila RNAi Screening Center – 2013
The screen tested about 20,000 reagents; shown is an unselected part of those with a known target gene and a result. Of all reagents, about 2,100 (10%) got an active call. 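Raw plate signals without normalisation; calls rest on control-based scores that were not deposited; replicate 2 separates called from uncalled poorly.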 Names joined by + are all predicted targets of the reagent. The record does not give: the amount of reagent, the time to read-out.

Screen: 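Knock-downs that reduce calcium influx once internal stores are emptied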 (primary screen)
Cell system: Drosophila S2R+ cells
Reagent: long dsRNA against Drosophila genes
Conditions: thapsigargin (2 µM) in calcium-free buffer to empty internal stores, then 2 mM calcium added back
Read-out: 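Fluo-4 signal in 384-well plates read on a FLIPR after thapsigargin (2 µM, calcium-free) store depletion and 2 mM calcium add-back; unnormalised mean endpoint per well; screen run twice, selected wells retested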
Scale: calcium signal and retest calcium signal: higher = more calcium entry after store depletion
Call rule: 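Knock-downs counted as hits when calcium entry dropped relative to STIM1 positive and Rho1 negative controls present on each plate; roughly 1500 genes called, with reductions of differing size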
Meaning of the calls: active = called as lowering calcium entry; inactive = not called

predicted target	dsRNA	calcium signal, replicate 1	calcium signal, replicate 2	retest calcium signal, replicate 1	retest calcium signal, replicate 2	Call
CG3987	DRSC15531	106	126			inactive
CG3679	DRSC19346	188	121			inactive
Fatp2	DRSC03971	91.2	6279	111	77.8	inactive
Fatp2	DRSC04178	118	171			inactive
Fatp2	DRSC04330	148	261			inactive
CG15237	DRSC04971	109	114			inactive
wisp	DRSC19703	139	169			inactive
wisp	DRSC23092	106	110			inactive
CG17129	DRSC08508	53.9	130			active
DZIP1	DRSC14620	218	124			inactive
CG1902	DRSC06798	153	120			inactive
CG43078	DRSC10292	105	112			inactive
CG43078	DRSC10608	93.2	109			inactive
CG43078	DRSC21541	283	118			inactive
CG43078	DRSC22327	66.3	244			inactive
CG8012	DRSC10951	74.9	90			inactive
side-VI	DRSC12828					inactive
side-VI	DRSC14920	168	74.6			inactive
side-VI	DRSC15624	194	72.8			inactive
side-VI	DRSC23088	98.8	122			inactive
Ask1	DRSC16789	137	134			inactive
Ask1	DRSC21697	41.6	135			active
CG32228	DRSC22296	129	191			inactive
CG42354 + CG42353	DRSC20172	146	142			inactive
l(2)k05911	DRSC02523	119	156			inactive
mon2	DRSC03112	151	154			inactive
CG33017	DRSC06573	163	192			inactive
CG33017	DRSC06574	185	142			inactive
CG14974	DRSC08433	101	80			inactive
Alp1	DRSC11781	121	88.7			inactive
CG11180	DRSC06055	132	81.8			inactive
l(1)G0004	DRSC20486	107	110			inactive
CG7120	DRSC10773	86.9	75			inactive
CG14324	DRSC14803	120	140			inactive
Apt1	DRSC10348	66.1	64			inactive
Naprt	DRSC00630	136	276			inactive
Slc45-1	DRSC10427	94	80			inactive
Pp1alpha-96A	DRSC16795	212	143			inactive
Pp1alpha-96A	DRSC23320	104	154			inactive
Cph	DRSC18434	274	154			inactive
Ccp84Af	DRSC12591	157	122			inactive
CG8097	DRSC20079	87.8	125			inactive
hydra	DRSC20497	71.6	171			active
Cyt-c1	DRSC10447	68.9	130			active
Taf5	DRSC07562	202	172			inactive
Tektin-C	DRSC09741	99.7	75.8			inactive
CG15554	DRSC15092	190	196			inactive
Alas	DRSC04044	145	81.2			inactive
CG6974	DRSC16160	155	156			inactive
CG16713	DRSC00477	146	109			inactive
CG15533	DRSC15069	147	135			inactive
CG15255	DRSC01869	113	95.1			inactive
CG6770	DRSC02992	92.7	98.2	84.4	107	inactive
CG13545	DRSC04187	138	250			inactive
slbo	DRSC04716	133	178	112	83.6	inactive
D1	DRSC16638	146	111			inactive
Gfat2	DRSC14598	90.5	121			inactive
CG30487	DRSC05377	104	141			inactive
CstF50	DRSC15434	110	127			inactive
dgt6	DRSC14424	81.4	88.3			inactive
Gr8a	DRSC18043	106	122			inactive
CG3071	DRSC18526	112	162			inactive
CG33181	DRSC17971	245	98.6			inactive
CG33181	DRSC22376	98.1	165			inactive
Mt2	DRSC03374	99.7	142			inactive
ND-49L	DRSC14437	280	133			inactive
CG6178	DRSC15984	152	177			inactive
CG3483	DRSC04371	185	98.3			inactive
Trf4	DRSC00729	191	146			inactive
Vps4	DRSC19338	144	115			inactive
CG32241	DRSC08100	5206	113			inactive
CG32241	DRSC21518	170	125			inactive
SmD3	DRSC07553	97.6	89.1			inactive
CG7492	DRSC10855	103	103			inactive
ko	DRSC11893	113	95.1			inactive
sna	DRSC03613	156	120			inactive
CG1907	DRSC15399	71.2	151			inactive
Ice2	DRSC14268	172	274			inactive
CG2750	DRSC19867	110	85.8	89.5	167	inactive
Atet	DRSC00263	109	104			inactive
CG32305	DRSC08614	76.4	116			inactive
mRF1	DRSC02880	87.3	90.5			inactive
CG33140	DRSC06030	141	109			inactive

Copied from the list.
CG3679 [DRSC19346], Call: inactive
Under “Call”, Gfat2 [DRSC14598] has inactive
Alas [DRSC04044], Call = inactive
Under “Call”, Cyt-c1 [DRSC10447] shows active
Value of l(1)G0004 [DRSC20486] in “calcium signal, replicate 1”: 107
Value of Cph [DRSC18434] in “calcium signal, replicate 1”: 274
